The target in the test is T1, NMDA NR1-1b S1S2 domain (Rattus norvegicus, UniProt P35439).
T1 construct: (His)8-TSG-LVPRG(thrombin cut site)-S1(394-544)-GT-S2(663-800); (His)8-TSG-LVPRG (His8 tag with thrombin cut site) (N); made in house; host or cells: E. coli Origami B(DE3)
As to the kind of experiment: Kd determination by intrinsic tryptophan fluorescence (double reciprocal, Benesi-Hildebrand plot). Conditions: 5.29 μM NR1-1b S1S2, buffer 3 pH 6.5, 25°C, error at 95% confidence level. The test is classed as binding. The protocol:
Intrinsic fluorescence studies were performed in a Cary Eclipse fluorometer at 25°C. All emission scans were acquired from 300 to 400 nm upon excitation at 290 nm, with 10 nm excitation and emission slit widths in a 10 mm-path-length cell. Excitation was performed at 290 nm to minimize interference from both tyrosine residues in the NMDA NR1-1b S1S2 domain as well as the aromatic antidepressants being studied. Before data acquisition, samples were incubated for thirty seconds in the sample holder at 25°C. […] Thus, data was reported without a buffer subtraction.
Protein samples were at a final concentration of 5.29 μM in buffer 3 (10 mM MES, pH 6.5, 25 mM NaCl, 1 mM glycine). All antidepressants were solubilized in 100% methanol to the highest attainable concentrations. To account for any effects methanol had on fluorescence intensity, protein spectra with methanol were collected, allowing direct comparison between samples with and without antidepressant. Each data set consisted of at least three independent emission spectra of identically prepared samples. The data is reported with error determined at the 95% confidence level.
A double reciprocal plot was used to determine Kd, which derives from the Benesi-Hildebrand relationship, provided there is a 1 : 1 binding stoichiometry. […] When 1/ΔF is plotted against 1/[L], a linear relationship exists. The intercept on the x-axis is − K d.. […]

The structures appear in SMILES notation.

As a reminder, the Kd is the constant that tells how readily two partners part at equilibrium. The molecule `CN[C@H]1CC[C@@H](c2ccc(Cl)c(Cl)c2)c2ccccc21` [sertraline] displayed a Kd of 240 ± 90 µM.

Source of the values: paper PMC2809336, “Antidepressant Interactions with the NMDA NR1-1b Subunit” (Journal of Biophysics, 2008).
